Test results as given in the supplement of paper PMC12823440, “Inhibitors supercharge kinase turnover through native proteolytic circuits” (Nature, 2025).
This is one part of the list. Hit calls seldom repeat between salt and free forms of one compound.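 Kinases, fused to nanoluciferase, were expressed in K562 cells; luminescence was measured every 4 h from 2 to 18 h as percent of control (DMSO = 100%, positive control = 0%). A time point is decreased if signal falls significantly (2 sigma). Hits were called by the authors by a rule that is not shown; the count of time points alone does not decide it.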

The chains behind the UniProt entries cited, without tags or fusion partners.
UniProt Q9Y463, whole entry, looked up: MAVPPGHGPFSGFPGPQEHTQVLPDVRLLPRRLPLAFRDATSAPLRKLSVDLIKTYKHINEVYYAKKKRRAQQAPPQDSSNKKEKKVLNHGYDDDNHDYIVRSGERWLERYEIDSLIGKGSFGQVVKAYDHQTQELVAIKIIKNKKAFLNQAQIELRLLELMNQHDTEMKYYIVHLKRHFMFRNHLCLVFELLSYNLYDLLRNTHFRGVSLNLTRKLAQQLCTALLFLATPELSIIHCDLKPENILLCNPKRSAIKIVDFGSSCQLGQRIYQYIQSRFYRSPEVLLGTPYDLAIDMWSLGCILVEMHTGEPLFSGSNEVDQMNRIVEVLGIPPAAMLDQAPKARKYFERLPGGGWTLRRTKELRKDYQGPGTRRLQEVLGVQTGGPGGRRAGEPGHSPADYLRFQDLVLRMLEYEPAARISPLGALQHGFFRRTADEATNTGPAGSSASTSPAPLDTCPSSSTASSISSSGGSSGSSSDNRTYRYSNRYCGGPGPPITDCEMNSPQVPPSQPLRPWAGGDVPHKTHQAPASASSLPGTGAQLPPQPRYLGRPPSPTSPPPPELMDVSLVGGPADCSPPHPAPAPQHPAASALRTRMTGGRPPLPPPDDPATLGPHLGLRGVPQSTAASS

The molecules below were run against DYRK1B (UniProt Q9Y463) (assay: kinase-Nluc reporter destabilization hit call (1 = scored as downregulated) (binary); higher = compound decreases kinase abundance). Conditions: 10 µM; K562; 2-18 h.

kinase-Nluc reporter destabilization hit call, inactive:
C[C@H]1CN(C2COC2)CCN1c1ccc(Nc2cc(-c3ccnc(N4CCn5c(cc6c5CC(C)(C)C6)C4=O)c3CO)cn(C)c2=O)nc1 [Fenebrutinib] 0
Nc1ncccc1-c1nc2ccc(-c3ccccc3)nc2n1-c1ccc(C2(N)CCC2)cc1 [Miransertib] 0
C=CC(=O)Nc1cc2c(Nc3ccc(F)c(Cl)c3)ncnc2cc1OCCCN1CCOCC1 [Canertinib] 0
O=c1ncn2nc(Sc3ccc(F)cc3F)ccc2c1-c1c(Cl)cccc1Cl [Neflamapimod] 0
CCCCCC1CC1CC1CC1CCCCCCCC(=O)OC (stereo not drawn) 0
CC(C)(C)n1nc(-c2ccc(Cl)cc2)c2c(N)ncnc21 0
NC1(C(=O)N[C@@H](CCO)c2ccc(Cl)cc2)CCN(c2nc[nH]c3nccc2-3)CC1 [Capivasertib] 0
Cc1ccc(O)cc1Nc1ccnc(Nc2cccc(C(N)=O)c2)n1 [Lck inhibitor 2] 0
